For at least one compound, name, drawing or mass did not settle the structure.
Experiments:
[1] = system: Klebsiella pneumoniae strain MS6771; assay: MIC by broth microdilution (CLSI); format: cell-based; settings: addition of sub-inhibitory PBT2+zinc(II) ions
[2] = system: Streptococcus pneumoniae 23F; assay: MIC by broth microdilution (CLSI); format: cell-based; settings: addition of sub-inhibitory PBT2+zinc(II) ions

SMILES | antibiotic sensitivity of resistant strain [1] | antibiotic sensitivity of resistant strain [2]
C[C@H]1c2cccc(O)c2C(=O)C2=C(O)[C@]3(O)C(=O)C(C(N)=O)=C(O)[C@@H](N(C)C)[C@@H]3[C@@H](O)[C@@H]21 [Doxycycline, doxycycline] | became sensitive | –
CN(C)[C@@H]1C(O)=C(C(N)=O)C(=O)[C@@]2(O)C(O)=C3C(=O)c4c(O)cccc4[C@@](C)(O)[C@H]3C[C@@H]12 [Tetracycline, tetracycline] | became sensitive | became sensitive
